Experimental data: PubChem BioAssay AID1508597 (Cure First, 2020)
This is a random part of the about 2,100 reagents, under one of the conditions tested. 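Calls flag viability under 80% in either arm, not effects specific to rucaparib; the reference for percent is not stated.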 A number with no mark means an inactive call. A reagent listed more than once was tested more than once; the source does not tell the runs apart. Reagent sequences are not shown. Not given: the 100% reference.

Assay: 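Survival screen with siRNA in ovarian cancer cells derived from patients, with or without rucaparib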 (primary screen)
System: human ovarian carcinoma lines grown from tumours: OCI-P5x (papillary serous) and OCI-C5x (clear cell)
Reagents: siRNA pool against human genes, 1.25 pmol siRNA per well
Timing: 72 h or 96 h, depending on the cell culture
Challenge: rucaparib 20 µM (about IC30) or vehicle, present until read-out
Rucaparib or vehicle: Vehicle
Cell line: OCI-P5x (serous)
Measurement: 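ATP luminescence measured at 72 or 96 h according to the culture, then normalised and expressed as percent viability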
Reading the numbers: viability, normalised: higher = more viable cells remaining
Active means: 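a well counts as a hit if its normalised viability is under 80 percent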
Calls: active = viability under 80%; inactive = viability 80% or more

target	PubChem SID	technical replicate	viability, normalised (%)
TLR4	SID405526566	1	54.1 (active)
TLR4	SID405526566	2	61.6 (active)
TLR4	SID405526566	3	59.6 (active)
GADD45A	SID405528358	1	90.1
GADD45A	SID405528358	2	109
GADD45A	SID405528358	3	72.5 (active)
RAD54L	SID405527223	1	60.2 (active)
RAD54L	SID405527223	1	53.5 (active)
RAD54L	SID405527223	2	55 (active)
RAD54L	SID405527223	2	47.8 (active)
RAD54L	SID405527223	3	63.9 (active)
RAD54L	SID405527223	3	65 (active)
NHEJ1	SID405527071	1	68.2 (active)
NHEJ1	SID405527071	1	39.2 (active)
NHEJ1	SID405527071	2	57 (active)
NHEJ1	SID405527071	2	41.1 (active)
NHEJ1	SID405527071	3	90.8
NHEJ1	SID405527071	3	55.3 (active)
GSK3B	SID405526831	1	88.7
GSK3B	SID405526831	1	63.6 (active)
GSK3B	SID405526831	2	40.4 (active)
GSK3B	SID405526831	2	72.9 (active)
GSK3B	SID405526831	3	89.5
GSK3B	SID405526831	3	63.7 (active)
STK32B	SID405527781	1	72 (active)
STK32B	SID405527781	2	68.2 (active)
STK32B	SID405527781	3	57 (active)
TGFBR3	SID405526558	1	74 (active)
TGFBR3	SID405526558	2	83.9
TGFBR3	SID405526558	3	90.2
DDX41	SID405528188	1	57.2 (active)
DDX41	SID405528188	2	47.6 (active)
DDX41	SID405528188	3	76.8 (active)

Single entries from above.
GADD45A [SID405528358], technical replicate 2, viability, normalised (%) → 109
For “viability, normalised (%)”, GADD45A [SID405528358], technical replicate 1 shows 90.1
Result of DDX41 [SID405528188], technical replicate 2 in “viability, normalised (%)”: 47.6 (active)
STK32B [SID405527781], technical replicate 3, viability, normalised (%) = 57 (active)
Under “viability, normalised (%)”, STK32B [SID405527781], technical replicate 1 shows 72 (active)
TLR4 [SID405526566], technical replicate 3, viability, normalised (%): 59.6 (active)

The listing continues:
target	PubChem SID	technical replicate	viability, normalised (%)
TAF3	SID405526525	1	66.6 (active)
TAF3	SID405526525	2	63.7 (active)
TAF3	SID405526525	3	66.6 (active)
SIK2	SID405527872	1	69.1 (active)
SIK2	SID405527872	2	69.7 (active)
SIK2	SID405527872	3	61 (active)
MRPL58	SID405526353	1	74.5 (active)
MRPL58	SID405526353	1	71.2 (active)
MRPL58	SID405526353	2	78.4 (active)
MRPL58	SID405526353	2	73.3 (active)
MRPL58	SID405526353	3	77.5 (active)
MRPL58	SID405526353	3	68.1 (active)
LIMK1	SID405527508	1	98.4
LIMK1	SID405527508	2	72 (active)
LIMK1	SID405527508	3	88.8
HK1	SID405527755	1	81.5
HK1	SID405527755	2	83.3
HK1	SID405527755	3	60.3 (active)
XRCC3	SID405528376	1	84.8
XRCC3	SID405528376	2	105
XRCC3	SID405528376	3	82.8
CDKL1	SID405527567	1	94
CDKL1	SID405527567	2	84.9
CDKL1	SID405527567	3	75.3 (active)
